Data reported in patent publication US20210231669A1.
No constants are given. Whether binding was seen depends on the method and setting. Some entries that bind do so weakly or less than the wild type. Where a sequence is shown, tags or fusion partners need not be part of it.

T1: His-MRS (human) (UniProt P56192)
T1 sequence: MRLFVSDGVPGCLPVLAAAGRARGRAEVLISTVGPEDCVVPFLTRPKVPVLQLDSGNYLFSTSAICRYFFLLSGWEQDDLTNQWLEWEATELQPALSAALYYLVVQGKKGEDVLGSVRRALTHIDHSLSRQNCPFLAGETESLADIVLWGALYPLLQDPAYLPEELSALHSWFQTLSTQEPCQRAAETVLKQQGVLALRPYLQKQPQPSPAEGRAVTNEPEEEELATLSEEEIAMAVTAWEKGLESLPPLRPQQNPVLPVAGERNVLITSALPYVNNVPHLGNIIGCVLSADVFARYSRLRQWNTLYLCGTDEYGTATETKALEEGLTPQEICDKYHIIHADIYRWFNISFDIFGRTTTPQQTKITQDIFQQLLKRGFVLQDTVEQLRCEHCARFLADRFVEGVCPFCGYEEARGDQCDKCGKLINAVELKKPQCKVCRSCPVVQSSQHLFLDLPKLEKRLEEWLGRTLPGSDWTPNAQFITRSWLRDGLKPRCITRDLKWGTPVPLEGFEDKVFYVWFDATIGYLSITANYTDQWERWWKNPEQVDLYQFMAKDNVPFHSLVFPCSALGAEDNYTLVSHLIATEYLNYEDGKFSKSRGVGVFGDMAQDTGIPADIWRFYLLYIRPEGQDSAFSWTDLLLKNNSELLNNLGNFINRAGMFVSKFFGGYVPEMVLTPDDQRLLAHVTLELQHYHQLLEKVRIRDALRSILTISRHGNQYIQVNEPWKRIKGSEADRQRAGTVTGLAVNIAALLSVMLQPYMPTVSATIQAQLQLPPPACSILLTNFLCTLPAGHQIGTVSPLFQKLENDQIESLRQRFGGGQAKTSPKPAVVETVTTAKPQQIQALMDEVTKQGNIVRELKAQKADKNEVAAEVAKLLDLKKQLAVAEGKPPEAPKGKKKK

B1: 1E8 antibody (anti-MRS monoclonal antibody, whole 1E8 IgG) (antibody, V domains shown)
VH: DVKLQESGPGLVNPSQSLSLTCTVTGYSITSDYAWNWIRQFPGNKLEWMGYISYSGRTSYKSSLKSRISITRDTSKNQFFLELNSVTTEDTATYYCARDYGNFVGYFDVWGAGTTVTVSS
VL: DIVMTQSPSSLAVSVGEKVTMSCKSSQSLLYSSNQKNYLAWYQQKPGQSPKLLIYWASTRESGVPDRFTGSGSGTEFTLTISSVKAEDLAVYYCQQYYSYPTFGGGTKLEIKA
B2: 8A12 antibody (anti-MRS monoclonal antibody, whole 8A12 IgG) (antibody, V domains shown)
VH: DVKLQESGPGLVKPSQSLSLTCTVTGYSITSEYAWTWIRQFPGNKLEWMGYINYNGNTNLNPSLKSRISIIRDTSKNQFFLQLNSVTTEDTATYYCARSLWPRGWFAYWGQGTLVTVSA
VL: DIQMTQSPSSMYASLGERVTITCKASQDINSYLSWFQQKPGKSPKTLMYRANRLVDGVPSRFSGSGSGQDYSLTISSLEYEDMGIYYCLQYDEFPRTFGGGTKLEIKA

Columns and labels:
His-MRS (human) [1] = biological target: T1, His-MRS (human); experiment: ELISA, protein coated at 1 µg/ml, antibody at 500 ng/ml, HRP anti-mouse IgG, absorbance at 450 nm
His-MRS (human) [2] = biological target: T1, His-MRS (human); experiment: ELISA, protein coated at 1 µg/ml, antibody 500 ng/ml

Binder | binding (His-MRS (human) [1]) | binding (His-MRS (human) [2])
B1 | binds | binds
B2 | binds | binds
